# Laboratory results from PubChem BioAssay AID445 (National Center for Advancing Translational Sciences (NCATS), 2006).
# The list shows a part of the results. Further columns of the screen follow, without active or inactive calls. Most of these compounds were active or inconclusive in the main read-out, so they are no random draw. Words in brackets tell the shape of the fitted curve; partial curves, single points and poor fits give uncertain potencies.
# Test: IkB Signaling
# Conditions: ABC-DLBCL IkBa-CBG/CBR dual luciferase ratio (green luciferase fused to IkBa over red control in OCI-Ly3 lymphoma cells), 4 h; measured here: control luc red channel unless noted
# Outline: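 Curves were fitted separately to fusion (green), unfused (red) and ratio luminescence, then classed by r2, magnitude and activity. Cells: OCI-Ly3, 4 h compound plus doxycycline at 37C; 10 uM MG-132 defined full response.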
row,SMILES,AC50
1,CCN(CCCNC(=O)c1cc2c(=O)n(CC)c3ccccc3c2s1)Cc1ccccc1,"20 µM [falling, partial curve]"
2,CCOC(=O)N1CCN(Cc2nc3cc(NC(=O)c4ccccc4Cl)ccc3n2C(C)C)CC1,"2.51 µM [rising, partial curve]"
3,C=C(C)COc1ccc(-c2[nH]ncc2Oc2ccccc2OCC)c(O)c1,"39.8 µM [falling, single point]"
4,O=C(Nc1ccc(S(=O)(=O)N2CCCCCC2)cc1)c1ccc(Br)o1,"20 µM [falling, partial curve]"
5,CCOC(=O)c1ccc(NC(=O)N2CC3CCCN3c3ccccc32)cc1 (stereo not given),"31.6 µM [falling, partial curve]"
6,COc1ccc2nc(NC(=O)C3CCCN(S(=O)(=O)c4cccc5nonc45)C3)sc2c1 (stereo not given),"2.51 µM [falling, full curve]"
7,Cc1ccc2nc(-c3cccs3)c(Nc3ccc4c(c3)OCCO4)n2c1,"31.6 µM [falling, single point]"
8,O=C(Cn1cc(S(=O)(=O)N2CCCC2)c(S(=O)(=O)N2CCCC2)c1)Nc1ccc(F)cc1,"3.98 µM [rising, single point]"
9,CC1=CC2=C(OC1N(C)C)c1cccc3cccc(c13)C2=O (stereo not given),"25.1 µM [falling, partial curve]"
10,CCOC(=O)c1c(NC(=O)CSc2nnc(CNc3ccc(F)cc3)o2)sc(C(C)=O)c1C,"10 µM [falling, partial curve]"
11,O=C(Cn1cc(C(=O)c2ccco2)c2ccccc21)Nc1ccccc1,"12.6 µM [falling, partial curve]"
12,CCOc1ccc(NC(=O)c2ccc(F)c(S(=O)(=O)N(Cc3ccc(C(=O)OC)cc3)Cc3ccc(OC)c(OC)c3)c2)cc1,"12.6 µM [falling, partial curve]"
13,CCOc1cc(C2C(C#N)=C(N)OC(C)=C2C(C)=O)cc(Br)c1O (stereo not given),"25.1 µM [falling, partial curve]"
14,CC1CCc2nc(NC(=O)Cc3cccs3)sc2C1 (stereo not given),"15.8 µM [falling, partial curve]"
15,CCc1ccc(NS(=O)(=O)c2ccc3[nH]cc(C(=O)NCc4ccc(C)cc4)c(=O)c3c2)cc1,"10 µM [falling, partial curve]"
16,CCOc1ccc(-n2c(=O)c3c4c(sc3n(Cc3cccc(C)c3)c2=O)CCCC4)cc1,"5.01 µM [falling, full curve, poor fit]"
17,COC(=O)CSc1nc2ccc(NC(C)=O)cc2s1,"15.8 µM [falling, partial curve]"
18,CCOC(=O)C1CCCN(C(=O)c2cc3c(-c4cccc(OC)c4)nn(C)c3s2)C1 (stereo not given),"31.6 µM [falling, partial curve]"
19,COc1ccc(OC)c(NC(=O)c2c(NCc3ccc(OC)c(OC)c3)sc3c2CCC3)c1,"5.01 µM [falling, partial curve]"
20,O=C(Nc1ccc(Br)cc1F)C(NS(=O)(=O)c1cccc2nsnc12)c1ccccc1 (stereo not given),"12.6 µM [falling, partial curve]"

row,SMILES,AC50
1,Cc1csc2nc(CSc3ccc(Cl)cc3)cn12,"12.6 µM [falling, partial curve]"
2,COc1ccc(CNC(=O)c2cc3c(-c4ccccc4F)nn(C)c3s2)cc1,"6.31 µM [falling, partial curve]"
3,COc1ccc2nc3sc(C(=O)NCc4cccs4)c(N)c3cc2c1,"3.98 µM [falling, partial curve]"
4,CC/C(=C(/CC)c1ccc(O)cc1)c1ccc(O)cc1,"15.8 µM [rising, partial curve] [measured here: IkB-luc green channel]"
5,Cc1nc2ccccc2c2oc(C(=O)NCC3CCCO3)cc12 (stereo not given),"31.6 µM [falling, partial curve]"
6,CCN(CC)C(=O)c1cnn(-c2ccc(F)cc2)c1-n1cccc1,"25.1 µM [falling, single point]"
7,Cc1ccc(CNC(=O)c2oc3ccc(S(=O)(=O)N4CCC5(CC4)OCCO5)cc3c2C)cc1,"3.16 µM [falling, full curve]"
8,CCNC(=O)c1c(C)oc2ncn(C)c(=O)c12,"39.8 µM [falling, single point]"
9,Cc1nn(CCCC(=O)Nc2cc(C(F)(F)F)ccc2Cl)c(=O)c2c1sc1ccccc12,"0.01 µM [rising, full curve, poor fit]"
10,Cc1ccc(N2CCN(C(=O)c3ccccc3Br)CC2)c(C)c1,"7.94 µM [falling, partial curve]"
11,Cc1ccc2c(c1)cc1c(=O)n(Cc3ccc(Cl)cc3)nc(C)n12,"6.31 µM [falling, partial curve]"
12,COc1cccc(-c2cc(C(=O)Nc3ccc(Br)c(C)c3)[nH]n2)c1,"1.26 µM [falling, partial curve]"
13,COc1ccc(CN(Cc2ccco2)C(=O)c2ccccc2F)cc1,"20 µM [falling, single point]"
14,Cc1cccc(C)c1NS(=O)(=O)c1ccc2c(c1)[C@H]1C=CC[C@H]1[C@@H](c1ccc(Cl)cc1)N2,"25.1 µM [falling, partial curve]"
15,CCn1c(CC2C(=O)Nc3ccccc32)nc2ccccc2c1=O (stereo not given),"39.8 µM [falling, single point]"
16,CCc1cc2c(N3CCCCC3)ncnc2s1,"31.6 µM [falling, single point]"
17,Cc1ccccc1Cn1c2ccccc2c2cnn(CC(=O)NCCCc3ccccc3)c(=O)c21,"15.8 µM [falling, partial curve]"
18,COc1ccc2c(c1)c1c(c(=O)n(-c3ccc(F)c(Cl)c3)c(=O)n1CC(N)=O)n2C,"0.0794 µM [rising, partial curve, poor fit]"
19,COc1ccccc1CNC(=O)CSc1cc(=O)n(C)c2ccccc12,"12.6 µM [falling, partial curve]"
20,Cn1nc(C(=O)N2CCN(c3ccc(Cl)cc3)CC2)c2c1-c1ccccc1S(=O)(=O)C2,"12.6 µM [falling, partial curve]"

# Copied from the listing, 3 compounds:
row,SMILES,AC50
11,O=C(Cn1cc(C(=O)c2ccco2)c2ccccc21)Nc1ccccc1,"12.6 µM [falling, partial curve]"
12,CCOc1ccc(NC(=O)c2ccc(F)c(S(=O)(=O)N(Cc3ccc(C(=O)OC)cc3)Cc3ccc(OC)c(OC)c3)c2)cc1,"12.6 µM [falling, partial curve]"
13,CCOc1cc(C2C(C#N)=C(N)OC(C)=C2C(C)=O)cc(Br)c1O (stereo not given),"25.1 µM [falling, partial curve]"
